In article PMC10576032:
These are yes or no findings as the source states them, for the method shown. In cells and extracts the contact can be indirect.

Molecular target: T1, ATF3 (activating transcription factor 3) (human (endogenous in the paper's human cell lines; line of the co-IP not stated)) (UniProt P18847)
T1 sequence: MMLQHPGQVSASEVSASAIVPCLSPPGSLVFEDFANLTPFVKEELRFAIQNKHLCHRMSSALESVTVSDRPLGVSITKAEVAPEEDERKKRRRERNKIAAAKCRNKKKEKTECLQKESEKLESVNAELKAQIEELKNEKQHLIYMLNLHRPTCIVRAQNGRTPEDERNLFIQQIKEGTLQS
Experiment: co-IP; ATF3 antibody immobilised on Dynabeads; cells treated with DMSO or 100 nM sangivamycin for 24 h; western blot of the co-IP complex

B1: DDIT4 (protein, UniProt Q9NX09 1-232)
chain: MPSLWDRFSSSSTSSSPSSLPRTPTPDRPPRSAWGSATREEGFDRSTSLESSDCESLDSSNSGFGPEEDTAYLDGVSLPDFELLSDPEDEHLCANLMQLLQESLAQARLGSRRPARLLMPSQLVSQVGKELLRLAYSEPCGLRGALLDVCVEQGKSCHSVGQLALDPSLVPTFQLTLVLRLDSRLWPKIQGLFSSANSPFLPGFSQSLTLSTGFRVIKKKLYSSEQLLIEEC
binding: no binding
